# Measured values published in the supplement of paper PMC10849652.
# Amino acid sequences for entries named in this document (tags omitted). A change or cut given only in a name is not applied to a line headed by its entry.
# UniProt P23443: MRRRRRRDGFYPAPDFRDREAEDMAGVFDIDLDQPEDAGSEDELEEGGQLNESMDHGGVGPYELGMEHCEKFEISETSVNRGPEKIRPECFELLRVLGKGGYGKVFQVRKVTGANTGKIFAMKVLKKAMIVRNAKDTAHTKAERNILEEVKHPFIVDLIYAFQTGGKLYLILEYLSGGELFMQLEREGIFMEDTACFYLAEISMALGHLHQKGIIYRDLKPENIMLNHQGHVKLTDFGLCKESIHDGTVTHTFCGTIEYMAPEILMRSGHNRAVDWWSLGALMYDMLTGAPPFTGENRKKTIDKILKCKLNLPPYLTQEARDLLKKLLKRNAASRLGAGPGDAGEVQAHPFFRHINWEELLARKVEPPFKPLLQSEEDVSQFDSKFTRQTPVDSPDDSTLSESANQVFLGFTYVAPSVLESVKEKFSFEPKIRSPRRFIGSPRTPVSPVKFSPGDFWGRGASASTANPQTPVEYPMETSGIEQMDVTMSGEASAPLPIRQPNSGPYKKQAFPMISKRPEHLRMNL
# UniProt Q9H633: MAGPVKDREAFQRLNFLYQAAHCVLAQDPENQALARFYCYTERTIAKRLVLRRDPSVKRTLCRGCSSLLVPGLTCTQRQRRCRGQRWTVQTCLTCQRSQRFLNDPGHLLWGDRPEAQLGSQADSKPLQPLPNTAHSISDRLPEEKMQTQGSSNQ
# UniProt Q9Y3I0: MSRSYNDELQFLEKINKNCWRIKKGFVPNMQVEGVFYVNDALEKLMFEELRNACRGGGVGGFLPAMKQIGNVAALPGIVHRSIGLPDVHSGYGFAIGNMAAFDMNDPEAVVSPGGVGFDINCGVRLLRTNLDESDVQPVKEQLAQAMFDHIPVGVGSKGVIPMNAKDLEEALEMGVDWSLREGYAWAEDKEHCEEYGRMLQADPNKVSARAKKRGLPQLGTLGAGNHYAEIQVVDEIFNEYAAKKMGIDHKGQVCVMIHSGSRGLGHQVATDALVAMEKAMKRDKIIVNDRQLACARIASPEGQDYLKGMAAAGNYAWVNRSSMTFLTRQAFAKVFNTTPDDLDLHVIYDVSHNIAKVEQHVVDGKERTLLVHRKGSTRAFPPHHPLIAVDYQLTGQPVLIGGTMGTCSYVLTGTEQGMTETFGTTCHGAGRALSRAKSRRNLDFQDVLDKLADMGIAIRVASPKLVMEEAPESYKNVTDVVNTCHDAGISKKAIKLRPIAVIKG
# UniProt Q8N122, whole entry, looked up: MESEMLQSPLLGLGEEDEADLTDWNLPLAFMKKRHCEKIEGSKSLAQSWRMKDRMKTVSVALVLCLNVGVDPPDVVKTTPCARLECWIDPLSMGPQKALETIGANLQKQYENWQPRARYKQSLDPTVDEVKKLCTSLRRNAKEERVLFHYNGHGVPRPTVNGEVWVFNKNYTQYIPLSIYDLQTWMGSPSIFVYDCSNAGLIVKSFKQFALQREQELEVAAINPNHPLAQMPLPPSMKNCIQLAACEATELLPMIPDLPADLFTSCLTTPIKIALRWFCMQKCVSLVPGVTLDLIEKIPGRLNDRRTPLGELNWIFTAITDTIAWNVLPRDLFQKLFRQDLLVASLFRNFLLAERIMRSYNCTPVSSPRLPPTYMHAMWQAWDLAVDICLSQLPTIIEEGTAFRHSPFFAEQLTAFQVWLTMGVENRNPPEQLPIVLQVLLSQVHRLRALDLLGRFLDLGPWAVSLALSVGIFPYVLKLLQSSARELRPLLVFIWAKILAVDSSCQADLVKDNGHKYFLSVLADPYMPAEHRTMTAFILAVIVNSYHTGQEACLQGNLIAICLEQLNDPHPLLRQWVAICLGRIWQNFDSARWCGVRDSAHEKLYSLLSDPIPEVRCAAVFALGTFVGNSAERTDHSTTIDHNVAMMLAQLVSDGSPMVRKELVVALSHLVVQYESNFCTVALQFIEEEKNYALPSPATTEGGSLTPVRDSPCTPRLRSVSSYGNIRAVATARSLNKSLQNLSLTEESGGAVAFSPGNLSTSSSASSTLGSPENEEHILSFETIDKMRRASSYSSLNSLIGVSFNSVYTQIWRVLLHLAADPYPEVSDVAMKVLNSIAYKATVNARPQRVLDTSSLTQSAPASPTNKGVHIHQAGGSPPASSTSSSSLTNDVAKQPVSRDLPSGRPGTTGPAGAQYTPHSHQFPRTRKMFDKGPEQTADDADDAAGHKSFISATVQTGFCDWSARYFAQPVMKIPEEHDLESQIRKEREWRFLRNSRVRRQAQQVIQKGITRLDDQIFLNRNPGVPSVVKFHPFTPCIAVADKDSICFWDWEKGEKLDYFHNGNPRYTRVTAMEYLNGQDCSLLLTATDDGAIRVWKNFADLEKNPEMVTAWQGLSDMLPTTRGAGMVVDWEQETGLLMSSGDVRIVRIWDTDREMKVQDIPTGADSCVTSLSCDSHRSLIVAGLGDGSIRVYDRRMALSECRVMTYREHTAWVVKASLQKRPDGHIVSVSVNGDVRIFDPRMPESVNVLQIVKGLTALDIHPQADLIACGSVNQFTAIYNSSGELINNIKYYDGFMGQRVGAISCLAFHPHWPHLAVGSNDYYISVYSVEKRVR
# UniProt Q6PCB5: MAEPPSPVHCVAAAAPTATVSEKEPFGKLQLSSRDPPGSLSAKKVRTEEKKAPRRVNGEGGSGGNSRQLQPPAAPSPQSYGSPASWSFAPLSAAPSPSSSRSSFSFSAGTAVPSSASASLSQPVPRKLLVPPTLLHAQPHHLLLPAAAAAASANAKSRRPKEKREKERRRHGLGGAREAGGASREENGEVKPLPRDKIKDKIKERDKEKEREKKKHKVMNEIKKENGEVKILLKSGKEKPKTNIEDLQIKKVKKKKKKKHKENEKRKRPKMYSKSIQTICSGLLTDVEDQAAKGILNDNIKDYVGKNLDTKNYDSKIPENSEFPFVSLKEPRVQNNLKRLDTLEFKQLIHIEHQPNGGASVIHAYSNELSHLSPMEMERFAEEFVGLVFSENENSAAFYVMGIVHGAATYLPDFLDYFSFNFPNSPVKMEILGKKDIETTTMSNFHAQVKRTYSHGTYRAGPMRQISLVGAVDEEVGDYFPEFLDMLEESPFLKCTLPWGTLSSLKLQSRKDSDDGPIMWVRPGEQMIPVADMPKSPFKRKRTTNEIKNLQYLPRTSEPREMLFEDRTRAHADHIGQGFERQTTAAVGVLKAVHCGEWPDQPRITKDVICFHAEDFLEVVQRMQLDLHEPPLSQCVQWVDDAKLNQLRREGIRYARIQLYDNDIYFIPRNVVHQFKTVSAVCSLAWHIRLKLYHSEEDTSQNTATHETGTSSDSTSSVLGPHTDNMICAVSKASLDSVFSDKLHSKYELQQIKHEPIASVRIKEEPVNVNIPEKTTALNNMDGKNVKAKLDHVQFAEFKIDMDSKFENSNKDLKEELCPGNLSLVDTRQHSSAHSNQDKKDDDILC
# UniProt Q9HB90, whole entry, looked up: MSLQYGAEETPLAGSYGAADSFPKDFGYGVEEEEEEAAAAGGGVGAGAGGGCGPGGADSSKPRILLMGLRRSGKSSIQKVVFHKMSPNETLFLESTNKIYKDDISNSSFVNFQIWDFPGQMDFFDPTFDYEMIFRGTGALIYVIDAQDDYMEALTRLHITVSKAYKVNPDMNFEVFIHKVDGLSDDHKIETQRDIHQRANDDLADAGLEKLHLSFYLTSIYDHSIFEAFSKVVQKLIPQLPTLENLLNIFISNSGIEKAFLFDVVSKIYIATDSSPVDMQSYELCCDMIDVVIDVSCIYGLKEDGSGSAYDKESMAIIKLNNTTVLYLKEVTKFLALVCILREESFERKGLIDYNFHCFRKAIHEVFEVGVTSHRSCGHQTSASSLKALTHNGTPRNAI
# UniProt Q8IZ73: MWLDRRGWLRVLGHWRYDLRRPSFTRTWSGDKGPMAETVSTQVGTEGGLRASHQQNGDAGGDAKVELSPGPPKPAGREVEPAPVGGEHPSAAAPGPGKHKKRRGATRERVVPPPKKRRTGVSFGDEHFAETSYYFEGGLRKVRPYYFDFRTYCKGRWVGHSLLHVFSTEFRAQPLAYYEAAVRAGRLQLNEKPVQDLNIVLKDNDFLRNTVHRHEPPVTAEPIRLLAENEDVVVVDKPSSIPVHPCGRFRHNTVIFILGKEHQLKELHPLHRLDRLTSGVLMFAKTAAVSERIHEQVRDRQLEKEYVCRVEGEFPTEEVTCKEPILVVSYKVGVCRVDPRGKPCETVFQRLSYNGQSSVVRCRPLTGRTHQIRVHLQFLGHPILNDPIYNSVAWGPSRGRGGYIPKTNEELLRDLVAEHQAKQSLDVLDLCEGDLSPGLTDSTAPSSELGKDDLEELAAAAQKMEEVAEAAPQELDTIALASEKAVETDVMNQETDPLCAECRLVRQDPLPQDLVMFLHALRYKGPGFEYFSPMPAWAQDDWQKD
# UniProt Q7L099: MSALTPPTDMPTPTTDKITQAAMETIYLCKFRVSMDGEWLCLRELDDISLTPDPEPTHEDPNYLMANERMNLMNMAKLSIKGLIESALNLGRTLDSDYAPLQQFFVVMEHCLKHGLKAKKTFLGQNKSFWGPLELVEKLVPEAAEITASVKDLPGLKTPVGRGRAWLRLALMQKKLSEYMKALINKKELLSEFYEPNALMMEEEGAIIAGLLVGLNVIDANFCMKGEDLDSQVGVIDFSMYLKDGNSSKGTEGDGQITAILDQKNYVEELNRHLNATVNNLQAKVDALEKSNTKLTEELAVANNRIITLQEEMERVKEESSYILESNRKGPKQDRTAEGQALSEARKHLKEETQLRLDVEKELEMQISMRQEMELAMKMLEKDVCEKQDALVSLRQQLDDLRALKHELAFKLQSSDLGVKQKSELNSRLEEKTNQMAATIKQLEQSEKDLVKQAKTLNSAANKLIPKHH
# UniProt Q5VWQ0: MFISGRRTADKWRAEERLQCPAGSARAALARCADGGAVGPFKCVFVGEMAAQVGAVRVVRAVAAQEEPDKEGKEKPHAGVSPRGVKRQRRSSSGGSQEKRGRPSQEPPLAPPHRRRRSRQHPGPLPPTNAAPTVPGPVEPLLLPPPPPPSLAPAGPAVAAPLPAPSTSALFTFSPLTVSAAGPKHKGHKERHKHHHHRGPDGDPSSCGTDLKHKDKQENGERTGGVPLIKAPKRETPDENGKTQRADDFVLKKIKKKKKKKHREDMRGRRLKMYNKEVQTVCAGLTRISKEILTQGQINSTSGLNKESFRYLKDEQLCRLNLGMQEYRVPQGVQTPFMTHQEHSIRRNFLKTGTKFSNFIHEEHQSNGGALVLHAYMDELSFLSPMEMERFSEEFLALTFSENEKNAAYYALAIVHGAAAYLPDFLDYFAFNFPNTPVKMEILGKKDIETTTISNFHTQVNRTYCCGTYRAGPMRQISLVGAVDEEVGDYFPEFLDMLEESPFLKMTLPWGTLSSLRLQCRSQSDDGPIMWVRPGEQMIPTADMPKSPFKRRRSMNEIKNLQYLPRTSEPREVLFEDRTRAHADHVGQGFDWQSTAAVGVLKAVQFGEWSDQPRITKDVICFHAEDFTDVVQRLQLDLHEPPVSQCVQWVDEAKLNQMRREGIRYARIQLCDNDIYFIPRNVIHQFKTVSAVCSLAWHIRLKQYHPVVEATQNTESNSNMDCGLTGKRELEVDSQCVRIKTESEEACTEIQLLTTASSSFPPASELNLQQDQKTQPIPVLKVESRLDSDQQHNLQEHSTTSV
# UniProt Q9BUL9: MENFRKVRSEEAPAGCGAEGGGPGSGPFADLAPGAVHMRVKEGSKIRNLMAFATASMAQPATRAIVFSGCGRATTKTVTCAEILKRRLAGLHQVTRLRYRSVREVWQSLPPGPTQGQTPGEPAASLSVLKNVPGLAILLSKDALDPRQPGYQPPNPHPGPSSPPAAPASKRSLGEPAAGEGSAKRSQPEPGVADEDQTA
# UniProt Q14684: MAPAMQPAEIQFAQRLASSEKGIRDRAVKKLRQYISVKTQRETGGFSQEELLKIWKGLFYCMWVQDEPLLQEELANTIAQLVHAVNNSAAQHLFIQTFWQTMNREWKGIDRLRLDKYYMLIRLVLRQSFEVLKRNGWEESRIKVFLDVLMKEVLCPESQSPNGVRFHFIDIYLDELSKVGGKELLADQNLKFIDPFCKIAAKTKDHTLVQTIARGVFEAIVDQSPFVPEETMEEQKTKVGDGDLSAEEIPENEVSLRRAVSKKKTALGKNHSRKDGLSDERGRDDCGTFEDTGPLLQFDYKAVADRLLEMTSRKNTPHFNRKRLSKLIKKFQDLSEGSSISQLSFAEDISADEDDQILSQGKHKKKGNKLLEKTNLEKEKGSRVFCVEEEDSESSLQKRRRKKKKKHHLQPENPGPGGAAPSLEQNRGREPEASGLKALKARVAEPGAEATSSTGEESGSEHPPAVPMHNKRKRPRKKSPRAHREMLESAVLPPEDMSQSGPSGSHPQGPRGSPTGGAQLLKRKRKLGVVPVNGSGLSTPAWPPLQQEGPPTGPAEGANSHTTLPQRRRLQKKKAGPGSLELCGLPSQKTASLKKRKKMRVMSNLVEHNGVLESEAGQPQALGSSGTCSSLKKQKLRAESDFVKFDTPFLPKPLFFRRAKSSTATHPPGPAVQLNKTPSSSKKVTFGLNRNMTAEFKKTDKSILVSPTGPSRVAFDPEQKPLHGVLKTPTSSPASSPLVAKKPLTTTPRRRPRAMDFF
# This is one part of the list.
# Key:
# Test in all cases: log2 fold change, soluble protein after heating vs DMSO (PISA); higher = thermal stabilisation; K562 lysate, 10 uM; active = over 0.2 and 3.5 SD of the protein, either way, in both replicates (recomputed)
# erlotinib = compound: C#Cc1cccc(Nc2ncnc3cc(OCCOC)c(OCCOC)cc23)c1 [erlotinib]
# How it was run: (§1)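 Following dounce homogenisation of K562 pellets in PBS pH 7.4 with 1 mM MgCl2, crude extract at 1 mg/mL protein was incubated for 30 min with 10 μM compound. Aliquots were then heated for 3 min over 48°C-58°C and pooled, NP-40 was added to 0.5% at 4°C, and soluble protein was recovered as the supernatant at 21,000xg for 90 min. Channel-sum-equalised TMTpro 16plex LC-MS/MS quantified this protein. Each value, from duplicates, is a log-two fold change in thermal stability relative to solvent controls.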
# [1] = compound: C/C(=N\NC(=O)C1=CC(=CC=C1)S(=O)(=O)N2CCOCC2)/C3=C(C=CC(=C3)Cl)O
# How it was run: as §1
# [2] = compound: C1=CC(=CC=C1C2=NC3=C(N2)C=C(C=C3)C(=O)N)OC4=CC=C(C=C4)Cl
# How it was run: as §1
# [3] = compound: C1=CC2=C(C=CC(=C2)/C=C\3/C(=O)NC(=NCC4=CC=CS4)S3)N=C1
# How it was run: as §1
# [4] = compound: C1=CC2=NC=CN=C2C=C1/C=C/3\C(=O)NC(=O)S3
# How it was run: as §1
# [5] = compound: C1=CC=C(C=C1)C2=NC(=C(N2)C3=CC=NC=C3)C4=CC(=C(C=C4)Cl)O
# How it was run: as §1
# [6] = compound: C1=CC=C2C(=C1)C3=NNC4=CC=CC(=C43)C2=O
# How it was run: as §1
# [7] = compound: C1CCN(C1)C(=O)NC2=CC=CC(=C2)NC3=NC=C(C(=N3)NCCC4=CN=CN4)Br
# How it was run: as §1
# [8] = compound: C1CN(CCC1(CC2=CC=C(C=C2)Cl)N)C3=NC=NC4=C3C=CN4
# How it was run: as §1
# IRAK-1-4 Inhibitor I = compound: C1COCCN1CCN2C3=CC=CC=C3N=C2NC(=O)C4=CC(=CC=C4)[N+](=O)[O-] [IRAK-1-4 Inhibitor I]
# How it was run: as §1
Target,log2 fold change (erlotinib),log2 fold change [1],log2 fold change [2],log2 fold change [3],log2 fold change [4],log2 fold change [5],log2 fold change [6],log2 fold change [7],log2 fold change [8],log2 fold change (IRAK-1-4 Inhibitor I)
RPS6KB1 (UniProt P23443),inactive: -0.017,inactive: -0.018,inactive: -0.034,inactive: 0.013,inactive: -0.001,inactive: 0.083,active: 0.322,inactive: 0.085,inactive: 0.027,inactive: 0.028
S100A2 (UniProt P29034),inactive: 0.168,inactive: -0.022,inactive: 0.223,inactive: -0.173,inactive: 0.036,inactive: -0.246,inactive: -0.195,inactive: -0.028,inactive: 0.036,inactive: 0.17
RPP21 isoform 4 (UniProt Q9H633),inactive: -0.049,inactive: 0.029,inactive: -0.063,inactive: 0.004,inactive: -0.032,inactive: 0.053,inactive: -0.064,inactive: 0.02,inactive: 0.017,inactive: -0.016
RTCB (UniProt Q9Y3I0),inactive: -0.018,inactive: -0.011,inactive: -0.035,inactive: -0.011,inactive: -0.001,inactive: 0.01,inactive: -0.003,inactive: -0.011,inactive: -0.001,inactive: -0.008
RPTOR (UniProt Q8N122),inactive: 0.032,inactive: 0.002,inactive: 0.062,inactive: 0.013,inactive: 0.017,inactive: -0.002,inactive: -0.002,inactive: -0.036,inactive: -0.015,inactive: 0.003
RSBN1L (UniProt Q6PCB5),inactive: -0.015,inactive: -0.07,inactive: 0.001,inactive: -0.031,inactive: -0.08,inactive: 0.036,inactive: 0,inactive: 0.034,inactive: 0.025,inactive: -0.018
RPS15A (UniProt P62244),inactive: -0.01,inactive: -0.121,inactive: 0.004,inactive: 0.007,inactive: -0.007,inactive: -0.023,inactive: -0.007,inactive: 0.002,inactive: -0.008,inactive: -0.001
RPS13 (UniProt P62277),inactive: -0.055,inactive: 0.015,inactive: -0.062,inactive: -0.033,inactive: -0.018,inactive: 0.009,inactive: 0.013,inactive: 0.038,inactive: -0.058,inactive: 0.023
RRAGC (UniProt Q9HB90),inactive: -0.017,inactive: -0.062,inactive: 0.028,inactive: 0.007,inactive: -0.014,inactive: -0.032,inactive: -0.018,inactive: 0.011,inactive: -0.004,inactive: 0.066
S100A11 (UniProt P31949),inactive: 0.02,inactive: 0.034,inactive: 0.02,inactive: -0.008,inactive: -0.028,inactive: -0.009,inactive: -0.055,inactive: 0.071,inactive: 0.074,inactive: -0.025
RPL36AL (UniProt Q969Q0),inactive: -0.036,inactive: -0.098,inactive: -0.012,inactive: 0.061,inactive: -0.029,inactive: 0.029,inactive: 0.048,inactive: 0.049,inactive: -0.05,inactive: -0.109
RPSA (UniProt P08865),inactive: 0.025,inactive: -0.057,inactive: -0.004,inactive: -0.033,inactive: -0.011,inactive: -0.009,inactive: -0.062,inactive: -0.002,inactive: 0.005,inactive: 0.006
RPUSD2 (UniProt Q8IZ73),inactive: 0.025,inactive: -0.085,inactive: 0.017,inactive: -0.029,inactive: 0.012,inactive: 0.008,inactive: 0.003,inactive: -0.011,inactive: 0.024,inactive: -0.005
RPS29 (UniProt P62273),inactive: 0.088,inactive: 0.023,inactive: 0.018,inactive: -0.064,inactive: -0.026,inactive: 0.017,inactive: 0.051,inactive: 0.018,inactive: -0.037,inactive: 0.046
RTN4 isoform 5 (UniProt Q9NQC3),inactive: -0.051,inactive: -0.015,inactive: -0.033,inactive: 0,inactive: -0.018,inactive: -0.048,inactive: 0.057,inactive: 0.082,inactive: 0.062,inactive: 0.066
RUFY3 isoform 3 (UniProt Q7L099),inactive: -0.001,inactive: -0.008,inactive: 0.027,inactive: -0.005,inactive: -0.012,inactive: -0.015,inactive: -0.001,inactive: 0.022,inactive: -0.01,inactive: -0.001
RPL4 (UniProt P36578),inactive: -0.005,inactive: -0.257,inactive: -0.009,inactive: -0.012,inactive: -0.017,inactive: 0.018,inactive: 0.036,inactive: 0.051,inactive: -0.02,inactive: -0.008
RSBN1 (UniProt Q5VWQ0),inactive: -0.021,inactive: -0.06,inactive: -0.01,inactive: 0,inactive: -0.005,inactive: 0.025,inactive: 0.023,inactive: -0.017,inactive: -0.012,inactive: -0.002
RTN4 (UniProt Q9NQC3),inactive: -0.007,inactive: 0.034,inactive: -0.004,inactive: 0.008,inactive: 0.008,inactive: 0.023,inactive: -0.011,inactive: -0.019,inactive: 0.019,inactive: 0.04
RPL37 (UniProt P61927),inactive: -0.078,inactive: -0.032,inactive: -0.063,inactive: 0.021,inactive: 0.006,inactive: 0.005,inactive: 0.007,inactive: -0.013,inactive: -0.027,inactive: 0.039
RPN2 (UniProt P04844),inactive: 0,inactive: 0.014,inactive: -0.055,inactive: 0.022,inactive: 0.021,inactive: 0,inactive: -0.049,inactive: -0.007,inactive: 0.006,inactive: 0.007
RPS5 (UniProt P46782),inactive: 0.009,inactive: 0.071,inactive: 0.003,inactive: -0.001,inactive: -0.03,inactive: -0.02,inactive: -0.026,inactive: 0.009,inactive: -0.029,inactive: 0.01
RPL8 (UniProt P62917),inactive: 0.001,inactive: -0.307,inactive: -0.024,inactive: -0.025,inactive: -0.026,inactive: 0.007,inactive: 0.109,inactive: 0.019,inactive: -0.085,inactive: -0.005
RPL39P5 (UniProt Q59GN2),inactive: 0.065,inactive: -1.4,inactive: 0.027,inactive: 0.024,inactive: -0.012,inactive: -0.001,inactive: 0.023,inactive: 0.042,inactive: 0.009,inactive: 0.01
RPP25 (UniProt Q9BUL9),inactive: -0.112,inactive: -0.066,inactive: -0.026,inactive: -0.017,inactive: 0.007,inactive: 0.07,inactive: 0.023,inactive: 0.109,inactive: -0.006,inactive: -0.03
RPS17 (UniProt P08708),inactive: -0.013,inactive: 0.008,inactive: -0.024,inactive: -0.042,inactive: -0.018,inactive: 0.006,inactive: 0.015,inactive: 0.014,inactive: -0.028,inactive: 0.01
RRP1B (UniProt Q14684),inactive: 0.007,inactive: -0.097,inactive: -0.041,inactive: 0.044,inactive: 0.001,inactive: 0.003,inactive: -0.051,inactive: 0.013,inactive: 0.042,inactive: -0.028
RPS4X (UniProt P62701),inactive: -0.016,inactive: 0.014,inactive: -0.012,inactive: -0.012,inactive: -0.018,inactive: -0.002,inactive: -0.005,inactive: 0.017,inactive: 0.004,inactive: 0.03
RPS26P11 (UniProt Q5JNZ5),inactive: -0.028,inactive: -0.021,inactive: -0.015,inactive: -0.01,inactive: 0.039,inactive: 0.005,inactive: -0.046,inactive: -0.045,inactive: 0.008,inactive: 0.001
RPS10 (UniProt P46783),inactive: -0.029,inactive: 0.033,inactive: -0.005,inactive: -0.012,inactive: -0.038,inactive: 0.006,inactive: -0.043,inactive: -0.004,inactive: 0.018,inactive: 0.008

# A few values from the entries so far.
# For log2 fold change [4], RPL8 (UniProt P62917) has the entry inactive: -0.026
# For log2 fold change [8], RPS29 (UniProt P62273) has the entry inactive: -0.037
